Test results reported in PMC9205782, “Identifying amyloid-related diseases by mapping mutations in low-complexity protein domains to pathologies” (Nature Structural & Molecular Biology, 2022).
These are yes or no findings as the source states them, for the method shown. Some results given as binding are weak or reduced against the parent protein; the word gives no strength.

The chains behind the UniProt entries cited, without tags or fusion partners. Where a name states a change or a piece, a line headed by the entry shows the natural chain unless it says otherwise. A line that says so, or that is headed by a name, gives the form on record, which may keep a tag or linker.
FUS G191S with N-terminal mCherry (P35637, form named): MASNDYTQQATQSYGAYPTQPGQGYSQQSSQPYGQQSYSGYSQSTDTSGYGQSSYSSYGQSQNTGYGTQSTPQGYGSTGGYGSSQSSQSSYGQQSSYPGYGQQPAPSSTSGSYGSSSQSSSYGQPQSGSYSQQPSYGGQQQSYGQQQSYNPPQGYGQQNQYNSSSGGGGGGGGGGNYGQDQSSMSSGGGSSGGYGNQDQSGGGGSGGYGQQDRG

How the values were obtained:
[1] = biological target: FUS G191S with N-terminal mCherry (human) (UniProt P35637); test: thioflavin T fluorescence on cooling (reversible aggregation, phase separation); same sample concentrations as the aggregation assay; held at 37 °C, cooled to 4 °C for 60 minutes, warmed back to 37 °C; both purified
[2] = biological target: FUS G191S with N-terminal mCherry (human) (UniProt P35637); test: X-ray fiber powder diffraction of aggregates; aggregated samples centrifuged, exchanged into water, dried between capillaries; cross-beta pattern; both purified

## FUS G191S with N-terminal mCherry (from UniProt P35637 1-214) (domain or fragment)
[1]
  binding: binds
[2]
  binding: binds
